In this series the test system is Wistar rats. The settings on record: lasered eye, day 0-14.

Where two headings read alike, the source gives them in different places.

For the compound `CCCN1CCC(c2cccc(S(C)(=O)=O)c2)CC1` [Pridopidine], the “Area under curve (AUC) of IOP, total area” value turned out to be 255 (3 mg/kg daily oral), 289 (30 mg/kg daily oral) and 295 (60 mg/kg daily oral).

The record behind these values is publication PMC8578336, “Neuroprotection of retinal ganglion cells by the sigma-1 receptor agonist pridopidine in models of experimental glaucoma” (Scientific Reports, 2021).
